We go through one molecule from PMC4904303.

Results are given in words; binding and its absence hold for the method and conditions named. In cells and extracts the contact can be indirect. Binding can be weak; no strength is given. Sequences can lack the tags named with a protein.

For test [1], the target named is FLAG-tagged Vpx 1-90 (C-terminally deleted Vpx) (HIV-2). In words: co-IP; HEK293T cells co-transfected with HA-H11 (or mutants) and FLAG-Vpx (or deletion mutants), 20 uM MG132 4 h before harvest; lysis in 50 mM Tris-HCl pH 8.0, 150 mM NaCl, 1 mM EDTA, 1 mM DTT; anti-FLAG M2 or anti-HA affinity gel; western blot. A general note: In western blotting, separated proteins are transferred to a membrane and probed.

In test [2] the target is FLAG-tagged Vpx 40-112 (N-terminally deleted Vpx) (HIV-2). The description is as above.

B1: HA-tagged wild type H11, expressed in HEK293T cells (protein, UniProt Q9UJY1 1-196)
chain: MADGQMPFSCHYPSRLRRDPFRDSPLSSRLLDDGFGMDPFPDDLTASWPDWALPRLSSAWPGTLRSGMVPRGPTATARFGVPAEGRTPPPFPGEPWKVCVNVHSFKPEELMVKTKDGYVEVSGKHEEKQQEGGIVSKNFTKKIQLPAEVDPVTVFASLSPEGLLIIEAPQVPPYSTFGESSFNNELPQDSQEVTCT
With B1, the binding result in test [1] and in test [2] was “binds” each time.
